The supplement of paper PMC12823440, “Inhibitors supercharge kinase turnover through native proteolytic circuits” (Nature, 2025)
Counter-ions that a name gives are not always drawn. Some of the results follow. Hit calls seldom repeat between salt and free forms of one compound.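 Kinases, fused to nanoluciferase, were expressed in K562 cells; luminescence was measured every 4 h from 2 to 18 h as percent of control (DMSO = 100%, positive control = 0%). A time point is decreased if signal falls significantly (2 sigma). Hits were called by the authors by a rule that is not shown; the count of time points alone does not decide it.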

By UniProt entry, the sequences of proteins in these tests, tags left out. Where a name states a change or a piece, a line headed by the entry shows the natural chain unless it says otherwise.
UniProt Q9Y616: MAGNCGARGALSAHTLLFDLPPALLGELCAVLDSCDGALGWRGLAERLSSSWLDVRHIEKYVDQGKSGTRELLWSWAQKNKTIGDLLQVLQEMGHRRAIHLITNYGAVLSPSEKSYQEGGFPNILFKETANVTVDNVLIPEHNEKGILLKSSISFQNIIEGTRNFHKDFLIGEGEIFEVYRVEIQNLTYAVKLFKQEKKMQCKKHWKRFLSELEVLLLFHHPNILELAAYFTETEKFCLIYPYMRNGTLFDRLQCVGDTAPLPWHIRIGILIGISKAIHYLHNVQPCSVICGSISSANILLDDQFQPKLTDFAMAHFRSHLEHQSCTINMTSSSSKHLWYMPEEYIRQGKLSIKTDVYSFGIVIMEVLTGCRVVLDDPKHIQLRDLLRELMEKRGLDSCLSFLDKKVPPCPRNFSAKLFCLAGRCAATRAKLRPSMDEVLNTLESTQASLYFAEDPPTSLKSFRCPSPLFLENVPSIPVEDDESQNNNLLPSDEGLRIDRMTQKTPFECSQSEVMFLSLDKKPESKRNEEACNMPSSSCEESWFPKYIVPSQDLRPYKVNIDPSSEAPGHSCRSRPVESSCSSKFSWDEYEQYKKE
UniProt P23458: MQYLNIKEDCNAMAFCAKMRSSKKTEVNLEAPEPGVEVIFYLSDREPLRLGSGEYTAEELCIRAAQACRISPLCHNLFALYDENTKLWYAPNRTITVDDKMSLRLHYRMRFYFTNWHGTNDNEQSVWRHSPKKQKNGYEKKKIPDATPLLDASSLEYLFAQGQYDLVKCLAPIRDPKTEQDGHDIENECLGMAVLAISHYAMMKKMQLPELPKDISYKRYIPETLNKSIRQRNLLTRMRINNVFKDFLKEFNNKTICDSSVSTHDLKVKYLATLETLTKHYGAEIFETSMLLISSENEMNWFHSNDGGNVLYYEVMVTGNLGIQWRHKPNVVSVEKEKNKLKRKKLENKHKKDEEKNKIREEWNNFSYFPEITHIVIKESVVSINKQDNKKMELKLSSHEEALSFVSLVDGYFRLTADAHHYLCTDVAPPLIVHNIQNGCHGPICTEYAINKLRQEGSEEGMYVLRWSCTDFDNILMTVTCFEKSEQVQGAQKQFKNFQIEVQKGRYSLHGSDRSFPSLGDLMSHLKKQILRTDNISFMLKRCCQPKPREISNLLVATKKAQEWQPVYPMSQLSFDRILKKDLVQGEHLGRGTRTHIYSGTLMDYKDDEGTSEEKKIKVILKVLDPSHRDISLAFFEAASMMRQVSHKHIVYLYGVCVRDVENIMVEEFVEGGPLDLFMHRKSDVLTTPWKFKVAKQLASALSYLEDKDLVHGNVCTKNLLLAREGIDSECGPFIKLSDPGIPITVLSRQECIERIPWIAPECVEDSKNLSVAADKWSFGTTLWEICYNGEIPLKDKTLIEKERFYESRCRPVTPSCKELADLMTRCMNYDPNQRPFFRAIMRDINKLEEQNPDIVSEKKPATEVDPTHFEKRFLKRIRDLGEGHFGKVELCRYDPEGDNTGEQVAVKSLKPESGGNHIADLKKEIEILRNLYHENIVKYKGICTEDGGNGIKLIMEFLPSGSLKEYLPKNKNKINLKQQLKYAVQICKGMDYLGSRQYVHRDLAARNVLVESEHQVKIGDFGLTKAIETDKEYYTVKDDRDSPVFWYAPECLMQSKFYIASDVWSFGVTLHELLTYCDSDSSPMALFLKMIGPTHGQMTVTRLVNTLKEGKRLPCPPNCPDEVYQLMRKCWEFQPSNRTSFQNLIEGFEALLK
UniProt P06239: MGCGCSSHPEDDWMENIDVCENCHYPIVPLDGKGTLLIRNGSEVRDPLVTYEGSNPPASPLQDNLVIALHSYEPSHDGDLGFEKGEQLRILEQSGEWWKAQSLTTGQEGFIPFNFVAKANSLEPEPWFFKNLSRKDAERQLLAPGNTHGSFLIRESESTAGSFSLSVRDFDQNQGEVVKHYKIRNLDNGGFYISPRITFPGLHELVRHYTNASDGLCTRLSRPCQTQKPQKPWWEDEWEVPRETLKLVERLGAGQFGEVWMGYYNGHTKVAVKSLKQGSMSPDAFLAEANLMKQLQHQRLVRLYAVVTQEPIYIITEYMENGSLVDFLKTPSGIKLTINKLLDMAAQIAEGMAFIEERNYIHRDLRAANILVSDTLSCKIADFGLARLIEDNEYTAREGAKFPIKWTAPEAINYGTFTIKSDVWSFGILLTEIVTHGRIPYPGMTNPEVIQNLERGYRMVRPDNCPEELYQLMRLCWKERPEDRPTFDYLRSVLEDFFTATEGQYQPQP
UniProt P53667: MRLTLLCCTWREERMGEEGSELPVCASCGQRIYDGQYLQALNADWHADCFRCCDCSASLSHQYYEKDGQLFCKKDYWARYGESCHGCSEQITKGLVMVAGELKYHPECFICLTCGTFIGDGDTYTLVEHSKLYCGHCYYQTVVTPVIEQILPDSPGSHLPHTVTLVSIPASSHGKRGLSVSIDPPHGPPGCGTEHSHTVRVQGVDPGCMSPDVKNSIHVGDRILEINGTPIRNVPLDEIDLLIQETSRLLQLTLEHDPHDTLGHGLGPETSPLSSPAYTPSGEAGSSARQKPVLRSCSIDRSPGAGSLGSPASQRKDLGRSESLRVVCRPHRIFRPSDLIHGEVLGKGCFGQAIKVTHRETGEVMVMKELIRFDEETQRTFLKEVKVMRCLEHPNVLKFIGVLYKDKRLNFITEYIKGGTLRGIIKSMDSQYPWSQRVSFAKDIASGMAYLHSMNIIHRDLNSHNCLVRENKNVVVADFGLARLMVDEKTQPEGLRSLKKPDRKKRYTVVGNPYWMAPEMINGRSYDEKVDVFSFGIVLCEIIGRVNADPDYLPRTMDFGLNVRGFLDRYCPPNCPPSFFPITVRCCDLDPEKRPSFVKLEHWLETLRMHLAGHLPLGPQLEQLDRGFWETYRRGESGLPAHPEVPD
UniProt P53671: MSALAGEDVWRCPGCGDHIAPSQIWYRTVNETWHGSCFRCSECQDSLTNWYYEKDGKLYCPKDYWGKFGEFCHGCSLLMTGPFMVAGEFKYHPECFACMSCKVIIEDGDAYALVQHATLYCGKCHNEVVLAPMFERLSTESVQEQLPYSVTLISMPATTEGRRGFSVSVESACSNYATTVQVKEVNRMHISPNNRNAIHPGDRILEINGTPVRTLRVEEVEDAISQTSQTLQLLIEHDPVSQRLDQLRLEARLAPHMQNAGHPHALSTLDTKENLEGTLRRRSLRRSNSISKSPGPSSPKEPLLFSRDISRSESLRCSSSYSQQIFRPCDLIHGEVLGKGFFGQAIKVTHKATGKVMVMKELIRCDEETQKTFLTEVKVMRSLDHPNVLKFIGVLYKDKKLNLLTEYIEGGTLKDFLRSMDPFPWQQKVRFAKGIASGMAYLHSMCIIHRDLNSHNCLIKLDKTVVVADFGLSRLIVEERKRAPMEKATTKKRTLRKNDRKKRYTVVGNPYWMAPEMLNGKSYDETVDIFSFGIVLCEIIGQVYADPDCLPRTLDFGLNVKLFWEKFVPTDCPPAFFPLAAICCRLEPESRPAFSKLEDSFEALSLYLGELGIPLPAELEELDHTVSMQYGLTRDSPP
UniProt Q8IWU2: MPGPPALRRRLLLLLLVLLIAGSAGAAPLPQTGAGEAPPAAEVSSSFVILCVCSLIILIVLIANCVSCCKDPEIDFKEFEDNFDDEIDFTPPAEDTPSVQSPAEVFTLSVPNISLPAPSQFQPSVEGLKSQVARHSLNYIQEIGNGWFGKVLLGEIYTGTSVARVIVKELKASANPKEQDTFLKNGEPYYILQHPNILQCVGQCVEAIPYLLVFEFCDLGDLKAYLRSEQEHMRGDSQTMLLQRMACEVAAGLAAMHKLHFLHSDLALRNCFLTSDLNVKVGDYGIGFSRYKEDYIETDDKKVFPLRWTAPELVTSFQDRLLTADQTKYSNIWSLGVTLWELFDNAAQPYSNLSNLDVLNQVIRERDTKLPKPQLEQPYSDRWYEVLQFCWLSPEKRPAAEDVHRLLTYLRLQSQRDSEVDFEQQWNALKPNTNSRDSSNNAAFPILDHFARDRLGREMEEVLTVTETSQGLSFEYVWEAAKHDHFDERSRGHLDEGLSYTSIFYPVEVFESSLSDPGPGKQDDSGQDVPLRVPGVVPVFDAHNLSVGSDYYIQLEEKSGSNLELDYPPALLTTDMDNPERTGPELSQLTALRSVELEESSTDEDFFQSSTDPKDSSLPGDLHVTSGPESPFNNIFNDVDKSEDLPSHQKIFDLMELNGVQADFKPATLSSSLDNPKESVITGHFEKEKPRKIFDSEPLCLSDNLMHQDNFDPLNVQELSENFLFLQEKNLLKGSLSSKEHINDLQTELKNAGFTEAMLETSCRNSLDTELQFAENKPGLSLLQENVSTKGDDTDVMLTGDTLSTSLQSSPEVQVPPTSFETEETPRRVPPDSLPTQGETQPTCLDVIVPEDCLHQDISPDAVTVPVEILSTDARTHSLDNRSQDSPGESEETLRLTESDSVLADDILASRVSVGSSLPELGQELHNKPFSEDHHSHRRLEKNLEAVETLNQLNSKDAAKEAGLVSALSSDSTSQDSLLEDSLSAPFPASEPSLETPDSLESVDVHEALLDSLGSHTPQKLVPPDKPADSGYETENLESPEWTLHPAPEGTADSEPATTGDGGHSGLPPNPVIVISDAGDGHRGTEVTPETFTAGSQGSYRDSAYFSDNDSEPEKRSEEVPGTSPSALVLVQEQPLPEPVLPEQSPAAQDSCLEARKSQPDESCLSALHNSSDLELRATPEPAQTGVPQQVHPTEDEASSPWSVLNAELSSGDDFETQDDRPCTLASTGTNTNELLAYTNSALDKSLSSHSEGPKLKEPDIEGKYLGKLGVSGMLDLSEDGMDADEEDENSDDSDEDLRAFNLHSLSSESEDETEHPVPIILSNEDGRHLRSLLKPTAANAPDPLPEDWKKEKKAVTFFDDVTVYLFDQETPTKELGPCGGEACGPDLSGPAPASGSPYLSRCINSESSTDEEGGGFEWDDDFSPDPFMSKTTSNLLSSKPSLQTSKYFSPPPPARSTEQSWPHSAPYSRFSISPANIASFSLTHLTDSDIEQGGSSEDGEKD
UniProt P07948: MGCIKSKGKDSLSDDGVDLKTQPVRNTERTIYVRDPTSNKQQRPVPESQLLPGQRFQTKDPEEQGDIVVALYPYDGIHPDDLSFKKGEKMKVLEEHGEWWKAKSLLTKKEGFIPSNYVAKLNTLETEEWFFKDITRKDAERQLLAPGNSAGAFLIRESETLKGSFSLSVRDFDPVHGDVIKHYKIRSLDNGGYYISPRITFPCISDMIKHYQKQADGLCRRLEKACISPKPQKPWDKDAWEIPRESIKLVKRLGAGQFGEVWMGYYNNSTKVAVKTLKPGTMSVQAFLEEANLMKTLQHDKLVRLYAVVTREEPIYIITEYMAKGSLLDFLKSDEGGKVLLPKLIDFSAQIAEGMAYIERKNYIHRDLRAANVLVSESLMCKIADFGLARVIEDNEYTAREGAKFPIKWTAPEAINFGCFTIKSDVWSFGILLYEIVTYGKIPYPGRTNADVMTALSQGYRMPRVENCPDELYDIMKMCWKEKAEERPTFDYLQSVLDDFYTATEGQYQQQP
UniProt Q12851: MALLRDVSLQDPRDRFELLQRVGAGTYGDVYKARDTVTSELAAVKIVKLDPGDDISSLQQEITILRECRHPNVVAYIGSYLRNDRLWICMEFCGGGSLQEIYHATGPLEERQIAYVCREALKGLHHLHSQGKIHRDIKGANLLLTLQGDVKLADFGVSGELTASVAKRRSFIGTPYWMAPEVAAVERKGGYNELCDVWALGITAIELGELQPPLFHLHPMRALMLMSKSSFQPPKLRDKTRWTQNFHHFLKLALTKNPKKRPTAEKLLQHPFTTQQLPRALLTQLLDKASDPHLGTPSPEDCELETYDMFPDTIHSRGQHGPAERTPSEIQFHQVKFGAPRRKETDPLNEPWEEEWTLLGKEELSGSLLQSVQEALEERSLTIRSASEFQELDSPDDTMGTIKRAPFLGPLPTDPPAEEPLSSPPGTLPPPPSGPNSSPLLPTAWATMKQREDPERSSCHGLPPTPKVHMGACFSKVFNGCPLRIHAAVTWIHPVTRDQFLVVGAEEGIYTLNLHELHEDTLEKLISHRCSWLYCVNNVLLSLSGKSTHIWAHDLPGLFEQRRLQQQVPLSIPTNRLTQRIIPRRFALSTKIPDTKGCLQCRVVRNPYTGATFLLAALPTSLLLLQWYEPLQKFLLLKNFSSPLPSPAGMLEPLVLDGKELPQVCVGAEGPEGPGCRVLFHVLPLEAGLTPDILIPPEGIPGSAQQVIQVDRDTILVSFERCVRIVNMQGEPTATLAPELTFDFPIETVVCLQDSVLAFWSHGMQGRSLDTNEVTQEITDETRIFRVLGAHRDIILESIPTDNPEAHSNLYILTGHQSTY

Columns and labels:
Test in all cases: kinase-Nluc reporter destabilization hit call (1 = scored as downregulated) (binary); higher = compound decreases kinase abundance
Details in all cases: K562; 2-18 h
[1] = molecular target: IRAK3 (UniProt Q9Y616)
[2] = molecular target: JAK1 (UniProt P23458)
[3] = molecular target: LCK (UniProt P06239)
[4] = molecular target: LIMK1 (UniProt P53667)
[5] = molecular target: LIMK2 (UniProt P53671)
[6] = molecular target: LMTK2 (UniProt Q8IWU2)
[7] = molecular target: LYN (UniProt P07948)
[8] = molecular target: MAP2K1 (UniProt Q02750)
[9] = molecular target: MAP2K2 (UniProt P36507)
[10] = molecular target: MAP4K2 (UniProt Q12851)

Measured: kinase-Nluc reporter destabilization hit call

C=CC(=O)Nc1cc2c(Nc3ccc(OCc4ccccn4)c(Cl)c3)ncnc2cc1OCCN1CCOCC1 (10 µM)
inactive: [1] 0 | [2] 0 | [3] 0 | [4] 0 | [5] 0 | [6] 0 | [7] 0 | [8] 0 | [9] 0 | [10] 0

O=C(/C=C/c1ccc(O[C@@H]2O[C@H](CO)[C@@H](O)[C@H](O)[C@H]2O[C@@H]2OC[C@](O)(CO)[C@H]2O)cc1)c1ccc(O)cc1O [Isoliquiritin apioside] (10 µM)
inactive: [1] 0 | [2] 0 | [3] 0 | [4] 0 | [5] 0 | [6] 0 | [7] 0 | [8] 0 | [9] 0 | [10] 0

Cc1ccc(-c2c(C(=O)CF)n(CCCO)c3ncnc(N)c23)cc1 (10 µM)
inactive: [1] 0 | [2] 0 | [3] 0 | [4] 0 | [5] 0 | [6] 0 | [7] 0 | [8] 0 | [9] 0 | [10] 0

Cn1nccc1Nc1nccc(-c2cc3c(s2)C(C)(C)N(CCN2CCOCC2)C3=O)n1 (10 µM)
inactive: [1] 0 | [2] 0 | [3] 0 | [4] 0 | [5] 0 | [6] 0 | [7] 0 | [8] 0 | [9] 0 | [10] 0

Ordered by length of the SMILES (low to high): part of the list above
Cn1nccc1Nc1nccc(-c2cc3c(s2)C(C)(C)N(CCN2CCOCC2)C3=O)n1 (10 µM)
inactive: [1] 0 | [2] 0 | [3] 0 | [4] 0 | [5] 0 | [6] 0 | [7] 0 | [8] 0 | [9] 0 | [10] 0

C=CC(=O)Nc1cc2c(Nc3ccc(OCc4ccccn4)c(Cl)c3)ncnc2cc1OCCN1CCOCC1 (10 µM)
inactive: [1] 0 | [2] 0 | [3] 0 | [4] 0 | [5] 0 | [6] 0 | [7] 0 | [8] 0 | [9] 0 | [10] 0

O=C(/C=C/c1ccc(O[C@@H]2O[C@H](CO)[C@@H](O)[C@H](O)[C@H]2O[C@@H]2OC[C@](O)(CO)[C@H]2O)cc1)c1ccc(O)cc1O [Isoliquiritin apioside] (10 µM)
inactive: [1] 0 | [2] 0 | [3] 0 | [4] 0 | [5] 0 | [6] 0 | [7] 0 | [8] 0 | [9] 0 | [10] 0

Next compounds follow:

C=C(C)C(=O)Nc1cccc(-c2ncnc3[nH]cc(C(=O)OCC)c23)c1 (10 µM)
inactive: [1] 0 | [2] 0 | [3] 0 | [4] 0 | [5] 0 | [6] 0 | [7] 0 | [8] 0 | [9] 0 | [10] 0

COc1ccc(CC(=O)Nc2nc3c(s2)CCc2ccccc2-3)cc1OC (10 µM)
inactive: [1] 0 | [2] 0 | [3] 0 | [4] 0 | [5] 0 | [6] 0 | [7] 0 | [8] 0 | [9] 0 | [10] 0

Cc1ccc(NC(=S)NNc2c([N+](=O)[O-])cc(C(F)(F)F)cc2[N+](=O)[O-])cc1Cl (10 µM)
inactive: [1] 0 | [2] 0 | [3] 0 | [4] 0 | [5] 0 | [6] 0 | [7] 0 | [8] 0 | [9] 0 | [10] 0

O=C(NCCO)c1ccc2c(c1)nc(Nc1cccc(Cl)c1)c1ccncc12 [CK2 inhibitor 2] (10 µM)
inactive: [1] 0 | [2] 0 | [3] 0 | [4] 0 | [5] 0 | [6] 0 | [7] 0 | [8] 0 | [9] 0 | [10] 0

CC(C)(C)c1ccc(S(=O)(=O)Nc2ccc(-n3ccnc3)cc2)cc1 (10 µM)
inactive: [1] 0 | [2] 0 | [3] 0 | [4] 0 | [5] 0 | [6] 0 | [7] 0 | [8] 0 | [9] 0 | [10] 0

CC(c1ccc(-c2cnc3c(-c4ccc(S(N)(=O)=O)c5ccccc45)cnn3c2)cc1)N1CCCC1 (stereo not given) (2.5 µM)
inactive: [1] 0 | [2] 0 | [3] 0 | [4] 0 | [5] 0 | [6] 0 | [7] 0 | [8] 0 | [9] 0 | [10] 0

COc1ccc2c(c1O)OC(C)(C)c1c-2ccc2c1C(=O)N(c1ccc(C(=O)c3ccccc3)cc1)C2=O [Ampkinone] (10 µM)
inactive: [1] 0 | [2] 0 | [3] 0 | [4] 0 | [5] 0 | [6] 0 | [7] 0 | [8] 0 | [9] 0 | [10] 0

Cc1cc(-c2cc(OC(=O)c3ccccc3)ccc2Cl)cc2nnc(Nc3ccc(OCCN4CCCC4)cc3)nc12 (0.5 µM)
inactive: [1] 0 | [2] 0 | [3] 0 | [4] 0 | [5] 0 | [6] 0 | [7] 0 | [8] 0 | [9] 0 | [10] 0

Cc1ccc2nc(NC(=O)CSc3nc4c(c(=O)n3-c3ccccc3)SCC4)sc2c1 (2 µM)
inactive: [1] 0 | [2] 0 | [3] 0 | [4] 0 | [5] 0 | [6] 0 | [7] 0 | [8] 0 | [9] 0 | [10] 0

C[C@@H]1O[C@@H](O[C@H]2[C@H](Oc3cc(O)c4c(=O)cc(-c5ccc(O)cc5)oc4c3)O[C@H](CO)[C@@H](O)[C@@H]2O)[C@H](O)[C@H](O)[C@H]1O [Rhoifolin] (10 µM)
inactive: [1] 0 | [2] 0 | [3] 0 | [4] 0 | [5] 0 | [6] 0 | [7] 0 | [8] 0 | [9] 0 | [10] 0

CNC(=O)c1ccc(-c2cnc3cnc(C(=O)N(C)c4ccc(Cl)cc4)cn23)cc1 (2.5 µM)
inactive: [1] 0 | [2] 0 | [3] 0 | [4] 0 | [5] 0 | [6] 0 | [7] 0 | [8] 0 | [9] 0 | [10] 0

NCCN1CCN(C/C=C/C(=O)N2CCC[C@@H](n3nc(-c4ccc(Oc5ccccc5)cc4)c4c(N)ncnc43)C2)CC1 [Ibrutinib-MPEA] (10 µM)
inactive: [1] 0 | [2] 0 | [3] 0 | [4] 0 | [5] 0 | [6] 0 | [7] 0 | [8] 0 | [9] 0 | [10] 0

C[C@@]1(O)CCC[C@H]1n1c(=O)c(C(F)F)cc2cnc(NC3CCN(S(C)(=O)=O)CC3)nc21 (2.5 µM)
inactive: [1] 0 | [2] 0 | [3] 0 | [4] 0 | [5] 0 | [6] 0 | [7] 0 | [8] 0 | [9] 0 | [10] 0

Cc1ccc(S(=O)(=O)/C=C/C#N)cc1 (10 µM)
inactive: [1] 0 | [2] 0 | [3] 0 | [4] 0 | [5] 0 | [6] 0 | [7] 0 | [8] 0 | [9] 0 | [10] 0

O=C1NC(=O)/C(=C/c2ccc3c(c2)OC(F)(F)O3)S1 (10 µM)
inactive: [1] 0 | [2] 0 | [3] 0 | [4] 0 | [5] 0 | [6] 0 | [7] 0 | [8] 0 | [9] 0 | [10] 0

COc1ccc(C2CC(c3ccccc3)=NN2c2ccc(S(N)(=O)=O)cc2)cc1 (stereo not given) (10 µM)
inactive: [1] 0 | [2] 0 | [3] 0 | [4] 0 | [5] 0 | [6] 0 | [7] 0 | [8] 0 | [9] 0 | [10] 0

CC(C)=CC[C@H](O)C1=CC(=O)c2c(O)ccc(O)c2C1=O [(-)-Alkannin] (2.5 µM)
inactive: [1] 0 | [2] 0 | [3] 0 | [4] 0 | [5] 0 | [6] 0 | [7] 0 | [8] 0 | [9] 0 | [10] 0

CC1=C2C(=O)O[C@@H](c3ccoc3)[C@]2(C)CCC1 [Fraxinellone] (10 µM)
inactive: [1] 0 | [2] 0 | [3] 0 | [4] 0 | [5] 0 | [6] 0 | [7] 0 | [8] 0 | [9] 0 | [10] 0

Cc1csc(-c2nnc(Nc3ccc(Oc4ncccc4-c4ccnc(N)n4)cc3)c3ccccc23)c1 (2.5 µM)
inactive: [1] 0 | [2] 0 | [3] 0 | [4] 0 | [5] 0 | [6] 0 | [7] 0 | [8] 0 | [9] 0 | [10] 0

O=[N+]([O-])c1cc(C(F)(F)F)cc([N+](=O)[O-])c1NNC(=S)Nc1ccc(F)cc1 (10 µM)
inactive: [1] 0 | [2] 0 | [3] 0 | [4] 0 | [5] 0 | [6] 0 | [7] 0 | [8] 0 | [9] 0 | [10] 0

O=C1Nc2nc(-c3c(O)cccc3OCC3CC3)cc([C@@H]3CCCNC3)c2CO1 [Bay 65-1942 (hydrochloride)] (10 µM)
inactive: [1] 0 | [2] 0 | [3] 0 | [4] 0 | [5] 0 | [6] 0 | [7] 0 | [8] 0 | [9] 0 | [10] 0

COCCOc1ccc(-c2cn(-c3ccccc3)c3nc[nH]c(=O)c23)cc1 (10 µM)
inactive: [1] 0 | [2] 0 | [3] 0 | [4] 0 | [5] 0 | [6] 0 | [7] 0 | [8] 0 | [9] 0 | [10] 0

N#Cc1ccc2ncnc(NC3CCC(N4CCOCC4)CC3)c2c1 (stereo not given) (10 µM)
inactive: [1] 0 | [2] 0 | [3] 0 | [4] 0 | [5] 0 | [6] 0 | [7] 0 | [8] 0 | [9] 0 | [10] 0
